In paper doi:10.1101/2020.01.24.918722:
These are yes or no findings as the source states them, for the method shown. For some of these results: In cells and extracts the contact can be indirect. Some results given as binding are weak or reduced against the parent protein; the word gives no strength. For some of these results: Where a sequence is shown, tags or fusion partners need not be part of it. Values belong to the molecule of their own block, whether it stands above or below them.

The chains behind the UniProt entries cited, without tags or fusion partners. Where a name states a change or a piece, a line headed by the entry shows the natural chain unless it says otherwise. Residues count along the entry.
UniProt Q62888, 15-678: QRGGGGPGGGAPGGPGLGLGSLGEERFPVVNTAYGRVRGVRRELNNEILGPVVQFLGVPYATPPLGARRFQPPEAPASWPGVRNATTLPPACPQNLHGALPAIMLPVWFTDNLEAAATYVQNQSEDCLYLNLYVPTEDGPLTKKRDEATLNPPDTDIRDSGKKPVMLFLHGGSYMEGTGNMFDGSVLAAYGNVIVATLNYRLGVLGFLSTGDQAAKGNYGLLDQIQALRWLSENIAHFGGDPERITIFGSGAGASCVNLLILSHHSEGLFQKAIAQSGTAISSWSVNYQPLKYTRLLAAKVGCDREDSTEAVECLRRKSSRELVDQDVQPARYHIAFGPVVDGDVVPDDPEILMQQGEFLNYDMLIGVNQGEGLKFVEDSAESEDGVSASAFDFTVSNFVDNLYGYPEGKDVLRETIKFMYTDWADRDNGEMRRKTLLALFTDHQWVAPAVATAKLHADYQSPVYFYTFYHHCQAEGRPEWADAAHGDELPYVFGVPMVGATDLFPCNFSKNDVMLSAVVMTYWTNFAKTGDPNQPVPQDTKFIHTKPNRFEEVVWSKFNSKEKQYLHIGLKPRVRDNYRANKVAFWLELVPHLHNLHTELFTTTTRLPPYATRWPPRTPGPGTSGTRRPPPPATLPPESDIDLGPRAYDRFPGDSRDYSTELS

Experiments:
[1] = molecular target: T1, His-HA-Clstn3 ΔCad (extracellular, without the cadherin domains) (mouse) (UniProt Q99JH7); test: pull-down
T1 sequence: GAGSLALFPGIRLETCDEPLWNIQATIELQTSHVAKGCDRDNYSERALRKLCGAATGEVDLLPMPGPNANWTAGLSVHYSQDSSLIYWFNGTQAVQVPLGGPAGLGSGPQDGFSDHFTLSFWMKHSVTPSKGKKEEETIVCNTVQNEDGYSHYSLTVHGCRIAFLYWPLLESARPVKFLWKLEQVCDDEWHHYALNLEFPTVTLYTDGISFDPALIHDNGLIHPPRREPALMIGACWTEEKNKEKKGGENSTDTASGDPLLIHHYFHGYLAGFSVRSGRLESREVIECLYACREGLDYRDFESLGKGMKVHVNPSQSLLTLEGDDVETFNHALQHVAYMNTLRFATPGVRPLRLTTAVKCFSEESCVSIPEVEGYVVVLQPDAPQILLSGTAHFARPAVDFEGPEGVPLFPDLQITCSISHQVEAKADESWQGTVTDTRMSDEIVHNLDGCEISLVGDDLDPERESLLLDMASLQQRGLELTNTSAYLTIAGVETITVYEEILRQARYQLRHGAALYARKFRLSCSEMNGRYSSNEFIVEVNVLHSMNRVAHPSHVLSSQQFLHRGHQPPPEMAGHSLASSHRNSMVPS

[2] = molecular target: FLAG-mNrxn1β^+SS4 (N-terminally FLAG-tagged mouse Nrxn1β containing the SS4 insert) (mouse) (UniProt P0DI97); test: cell surface-binding assay
[3] = molecular target: mNrxn1β ΔStalk1 (FLAG-tagged, lacks the entire stalk region) (mouse) (UniProt P0DI97); test: cell surface-binding assay
[4] = molecular target: Ig-mNrxn1β^+SS4 (mouse) (UniProt P0DI97); test: pull-down

B2: FLAG-Clstn3 Full (full-length Clstn3) (protein, UniProt Q99JH7 20-956)
chain: NKANKHKPWIEAEYQGIVMENDNTVLLNPPLFALDKDAPLRYAGEICGFRLHGSGVPFEAVILDKATGEGLIRAKEPVDCEAQKEHTFTIQAYDCGEGPDGTNTKKSHKATVHVRVNDVNEFAPVFVERLYRAAVTEGKLYDRILRVEAIDGDCSPQYSQICYYEILTPNTPFLIDNDGNIENTEKLQYSGEKLYKFTVTAYDCGKKRAADDAEVEIQVKPTCKPSWQGWNKRIEYAPGAGSLALFPGIRLETCDEPLWNIQATIELQTSHVAKGCDRDNYSERALRKLCGAATGEVDLLPMPGPNANWTAGLSVHYSQDSSLIYWFNGTQAVQVPLGGPAGLGSGPQDGFSDHFTLSFWMKHSVTPSKGKKEEETIVCNTVQNEDGYSHYSLTVHGCRIAFLYWPLLESARPVKFLWKLEQVCDDEWHHYALNLEFPTVTLYTDGISFDPALIHDNGLIHPPRREPALMIGACWTEEKNKEKKGGENSTDTASGDPLLIHHYFHGYLAGFSVRSGRLESREVIECLYACREGLDYRDFESLGKGMKVHVNPSQSLLTLEGDDVETFNHALQHVAYMNTLRFATPGVRPLRLTTAVKCFSEESCVSIPEVEGYVVVLQPDAPQILLSGTAHFARPAVDFEGPEGVPLFPDLQITCSISHQVEAKADESWQGTVTDTRMSDEIVHNLDGCEISLVGDDLDPERESLLLDMASLQQRGLELTNTSAYLTIAGVETITVYEEILRQARYQLRHGAALYARKFRLSCSEMNGRYSSNEFIVEVNVLHSMNRVAHPSHVLSSQQFLHRGHQPPPEMAGHSLASSHRNSMVPSAATLIIVVCVGFLVLMVILGLVRIHSLHRRVSGTGGPSGASTDPKDPDLFWDDSALTIIVNPMESYQNQQTCVAGVAGGQQEEEDSSDSEAADSPSSDERRIIESPPHRY
- binding [4]: binds

B3: Clstn3 (calsyntenin-3), endogenous in mouse synaptosomal membrane fractions (protein, UniProt Q99JH7 20-956)
chain: B2 chain
- binding [4]: binds

B4: FLAG-Clstn3 Cad (tandem cadherin domains, transmembrane segment and intracellular residues of Clstn3) (domain or fragment, UniProt Q99JH7 29-252; Q99JH7 848-956)
chain: IEAEYQGIVMENDNTVLLNPPLFALDKDAPLRYAGEICGFRLHGSGVPFEAVILDKATGEGLIRAKEPVDCEAQKEHTFTIQAYDCGEGPDGTNTKKSHKATVHVRVNDVNEFAPVFVERLYRAAVTEGKLYDRILRVEAIDGDCSPQYSQICYYEILTPNTPFLIDNDGNIENTEKLQYSGEKLYKFTVTAYDCGKKRAADDAEVEIQVKPTCKPSWQGWNKRATLIIVVCVGFLVLMVILGLVRIHSLHRRVSGTGGPSGASTDPKDPDLFWDDSALTIIVNPMESYQNQQTCVAGVAGGQQEEEDSSDSEAADSPSSDERRIIESPPHRY
- binding [4]: binds

Now from value to molecule:

- binding [1]: no binding
Molecule: Ig-mNrxn1β^+SS4 (from UniProt P0DI97 47-389) (Fc fusion)

- binding [2]: binds
- binding [3]: binds
Molecule: Ig-NL-2 (Ig-fused neuroligin-2) (from UniProt Q62888 15-678) (Fc fusion)

- binding [4]: no binding
B1: FLAG-Clstn3 ΔCad (full-length Clstn3 lacking the tandem cadherin domains) (domain or fragment, UniProt Q99JH7 258-956)
chain: GAGSLALFPGIRLETCDEPLWNIQATIELQTSHVAKGCDRDNYSERALRKLCGAATGEVDLLPMPGPNANWTAGLSVHYSQDSSLIYWFNGTQAVQVPLGGPAGLGSGPQDGFSDHFTLSFWMKHSVTPSKGKKEEETIVCNTVQNEDGYSHYSLTVHGCRIAFLYWPLLESARPVKFLWKLEQVCDDEWHHYALNLEFPTVTLYTDGISFDPALIHDNGLIHPPRREPALMIGACWTEEKNKEKKGGENSTDTASGDPLLIHHYFHGYLAGFSVRSGRLESREVIECLYACREGLDYRDFESLGKGMKVHVNPSQSLLTLEGDDVETFNHALQHVAYMNTLRFATPGVRPLRLTTAVKCFSEESCVSIPEVEGYVVVLQPDAPQILLSGTAHFARPAVDFEGPEGVPLFPDLQITCSISHQVEAKADESWQGTVTDTRMSDEIVHNLDGCEISLVGDDLDPERESLLLDMASLQQRGLELTNTSAYLTIAGVETITVYEEILRQARYQLRHGAALYARKFRLSCSEMNGRYSSNEFIVEVNVLHSMNRVAHPSHVLSSQQFLHRGHQPPPEMAGHSLASSHRNSMVPSAATLIIVVCVGFLVLMVILGLVRIHSLHRRVSGTGGPSGASTDPKDPDLFWDDSALTIIVNPMESYQNQQTCVAGVAGGQQEEEDSSDSEAADSPSSDERRIIESPPHRY
